Results from one PubChem assay

From PubChem BioAssay record AID1159506 (NCATS, 2015).

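Genome-wide siRNA knockdown in TC32 Ewing sarcoma cells, comparing luciferase light from an NR0B1-promoter reporter with a CMV-promoter reporter 48 hours after transfection. Each siRNA was applied at 20 nM. A z-score of the log NR0B1-over-CMV signal, less the median of siRNAs with the same seed; more negative means a stronger specific loss of the NR0B1 reporter.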

This is part of the screen; most of the strongest results are not listed here. Sequences are the guide (antisense) strand, without overhang.

With UUAGUGCCUACUUUCAUAG against C7orf62 the assay gave seed-corrected z-score -0.05214. With AAUGUGAUCAAAGAGCUCC against HKDC1 the assay gave seed-corrected z-score 0.8067. UAACGAUCGUAGGCAAUUG against SLBP gave seed-corrected z-score -0.8847. With UUGAUGUUGAGCGUGGUGU against ZBED1 the assay gave seed-corrected z-score 0.511. With AAAAUCCUCAUCGAUAUUG against MPP3 the assay gave seed-corrected z-score 0.05957.

Result for UGUACAAGUAAAACUGCCU against RSPO4 was seed-corrected z-score -0.006775. UAAUCGGCAACUGUGCCUG against CD247 gave seed-corrected z-score 0.9008. UGAACCUCGACAUCAGGGC against PLPP6 gave seed-corrected z-score -1.119. UUCUUUACCCUCGUCCUGC against GAP43 read seed-corrected z-score 0.05798. Result for AUUGUCACAAGGUUCACAU against ASB11 was seed-corrected z-score -1.358.

ACGGUUUCAAAUGAGGAUG against ATF6B gave seed-corrected z-score -1.48. UUUCGAGUAAGUCAUUUGG against LYST gave seed-corrected z-score 0.1428. UGAUCACUCAGAUACAUGG against ERC2 read seed-corrected z-score -0.3796. AUAGCGAUGAGGUGCAUGG against MCF2L gave seed-corrected z-score 0.228. For UGUACGAUCACUCCAUUGC against LY75 the result was seed-corrected z-score 0.08523.

Result for UUGCAGUCCAGUACGAAGC against LOC730202 was seed-corrected z-score -0.05918. UACUCGCCCAUCAAUUCGC against CHD6 read seed-corrected z-score 0.218. AAAGAGAUGAAUUUGCCGG against CASZ1 gave seed-corrected z-score 1.251. For UGGAUAUCCAUCAUGAAGU against KCNN4 the result was seed-corrected z-score 1.745. Result for UACUUAAUCAUGAAGACCG against FZD1 was seed-corrected z-score -0.3191.

UGGUAGUCAAAGGUAAGCC against NUDCD3 read seed-corrected z-score 0.04922. With UAAGUAUAGACGAGCAGGG against SEMA5A the assay gave seed-corrected z-score -0.2417. With UAAGUAACUGAAACGACUG against ZNF44 the assay gave seed-corrected z-score 0.4419. UGAAUUUGAAGAGUCCAUC against CYP27C1 read seed-corrected z-score 0.5089. For AAAGCGGCAGGUUAUAUUC against CD44 the result was seed-corrected z-score 0.2188.

Result for UCUGGGAUCGUAGCAUGCG against LMNTD2 was seed-corrected z-score 0.2891. UCUCAUGUAACUAUACAGC against ZCCHC5 read seed-corrected z-score -0.3535. AGAUCUACCAUCCACGGCU against ZNF2 gave seed-corrected z-score 0.8414. UUCUCUUCCAUCUUGUUCC against DFFB gave seed-corrected z-score 0.2568. For UGCCCUCUAAGUCUUCCUC against SNRNP27 the result was seed-corrected z-score -0.1369.

With UAAUUUCCUCUGCAUACUC against DNTTIP2 the assay gave seed-corrected z-score 2.887. Result for AUGAUAAAGAGACUCAUCC against TIGAR was seed-corrected z-score 0.344. Result for UAUGCAAAUAAAAGCCUAC against RSPO2 was seed-corrected z-score 0.6345. With UAAGUAUGCUGAAUCAAUA against AKR1C8P the assay gave seed-corrected z-score -0.1646. Result for ACUGGUCUCAUUUCGGGCG against NUDT22 was seed-corrected z-score -1.112.

UUCCGAAUUCCAGUAGUGG against EP300 read seed-corrected z-score 0.3927. Result for UCGAUGACGAUGCAGAUCC against TNS3 was seed-corrected z-score -0.2283. For UAUCCGCUGAAUCUAAUUG against PI15 the result was seed-corrected z-score 0.9251. For AUACAGACUGUAGUCGUGG against C6orf136 the result was seed-corrected z-score -1.531. For UCCAGACGAAGAGCUUUCC against IFIT5 the result was seed-corrected z-score -1.688.

UUUGAGACCCUUGAGUUUG against ZKSCAN4 read seed-corrected z-score 0.09542. For UUCUUUACACCUGUAGGGC against ZNF56 the result was seed-corrected z-score 0.916. UCUUGUUGGAUUCACCUGG against SRGN gave seed-corrected z-score 0.7817. UUCUAUUAGAGGUUCACUG against PIP5K1B read seed-corrected z-score -0.8793. UGAUAUAAGCUGACAAUUC against TTC39C gave seed-corrected z-score 0.1453.

With UUACAGACAUGACCUACCG against SULT1A1 the assay gave seed-corrected z-score -0.8113. With UUUUCUCCAAUUCGCGUAC against RPS7 the assay gave seed-corrected z-score 1.808. UUGUGAACAAGAAUAUAGC against UGT2A3 gave seed-corrected z-score 0.01109.

Some entries from above, unchanged:

- UGGUAGUCAAAGGUAAGCC against NUDCD3 | seed-corrected z-score 0.04922
- UUUUCUCCAAUUCGCGUAC against RPS7 | seed-corrected z-score 1.808
- UGUACAAGUAAAACUGCCU against RSPO4 | seed-corrected z-score -0.006775
- AGAUCUACCAUCCACGGCU against ZNF2 | seed-corrected z-score 0.8414
- UUGUGAACAAGAAUAUAGC against UGT2A3 | seed-corrected z-score 0.01109